What all share (test): co-IP
The target of assay [1] is HA-tagged wild-type MTA1 (HA-MTA1-WT) (human) (UniProt Q13330).
The target in assay [2] is HA-MTA1-S237A/S241A/S246A (HA-MTA1-3A) (human) (UniProt Q13330).
Assay [3] has as its target HA-tagged wild-type MTA1 (HA-MTA1-WT) (human) (UniProt Q13330). The source holds these as a separate data set.

Sequences of proteins named here, by UniProt entry; tags and fusion partners are left off. A change or cut given only in a name is not applied to a line headed by its entry.
UniProt Q13330, whole entry: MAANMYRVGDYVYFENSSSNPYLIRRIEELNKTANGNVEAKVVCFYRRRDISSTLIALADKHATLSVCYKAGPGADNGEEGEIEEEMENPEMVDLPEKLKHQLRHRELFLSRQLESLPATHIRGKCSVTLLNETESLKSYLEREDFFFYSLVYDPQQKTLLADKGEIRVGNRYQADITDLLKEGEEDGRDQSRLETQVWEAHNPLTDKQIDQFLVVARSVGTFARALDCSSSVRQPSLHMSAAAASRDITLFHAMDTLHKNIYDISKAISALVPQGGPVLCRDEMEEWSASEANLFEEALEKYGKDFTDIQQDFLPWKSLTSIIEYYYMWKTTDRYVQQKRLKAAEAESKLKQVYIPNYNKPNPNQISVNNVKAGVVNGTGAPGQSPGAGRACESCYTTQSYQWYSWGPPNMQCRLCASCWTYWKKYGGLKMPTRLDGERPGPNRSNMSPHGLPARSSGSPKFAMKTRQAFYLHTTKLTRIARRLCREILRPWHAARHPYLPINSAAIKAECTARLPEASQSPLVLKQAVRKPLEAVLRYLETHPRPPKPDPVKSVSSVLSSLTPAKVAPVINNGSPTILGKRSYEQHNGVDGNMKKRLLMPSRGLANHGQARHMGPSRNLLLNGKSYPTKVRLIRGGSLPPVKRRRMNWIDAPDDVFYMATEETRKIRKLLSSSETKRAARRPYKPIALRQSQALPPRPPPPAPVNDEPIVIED
UniProt Q13547, whole entry: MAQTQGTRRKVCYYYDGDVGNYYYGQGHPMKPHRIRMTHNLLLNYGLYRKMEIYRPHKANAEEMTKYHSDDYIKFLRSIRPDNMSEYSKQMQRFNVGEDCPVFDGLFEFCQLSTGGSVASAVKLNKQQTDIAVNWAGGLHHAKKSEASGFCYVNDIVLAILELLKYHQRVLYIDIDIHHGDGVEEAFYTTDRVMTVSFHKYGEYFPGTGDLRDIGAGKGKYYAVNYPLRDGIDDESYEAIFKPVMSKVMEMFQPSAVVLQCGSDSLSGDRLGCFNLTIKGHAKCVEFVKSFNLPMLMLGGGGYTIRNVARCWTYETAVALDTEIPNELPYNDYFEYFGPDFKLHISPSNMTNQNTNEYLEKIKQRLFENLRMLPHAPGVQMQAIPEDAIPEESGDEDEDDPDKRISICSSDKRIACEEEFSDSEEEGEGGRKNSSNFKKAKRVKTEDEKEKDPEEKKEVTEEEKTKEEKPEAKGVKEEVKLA

Like-named read-outs stand apart in the source and are kept apart here. These are yes or no findings as the source states them, for the method shown. In cells and extracts the contact can be indirect. Some entries that bind do so weakly or less than the wild type.

Regarding “HDAC1, endogenous (from UniProt Q13547 1-482) (enzyme)”, the binding result in assay [1] is “binds”.

B1: O-GlcNAc transferase (OGT), endogenous (enzyme, UniProt O15294 1-1046)
chain: MASSVGNVADSTEPTKRMLSFQGLAELAHREYQAGDFEAAERHCMQLWRQEPDNTGVLLLLSSIHFQCRRLDRSAHFSTLAIKQNPLLAEAYSNLGNVYKERGQLQEAIEHYRHALRLKPDFIDGYINLAAALVAAGDMEGAVQAYVSALQYNPDLYCVRSDLGNLLKALGRLEEAKACYLKAIETQPNFAVAWSNLGCVFNAQGEIWLAIHHFEKAVTLDPNFLDAYINLGNVLKEARIFDRAVAAYLRALSLSPNHAVVHGNLACVYYEQGLIDLAIDTYRRAIELQPHFPDAYCNLANALKEKGSVAEAEDCYNTALRLCPTHADSLNNLANIKREQGNIEEAVRLYRKALEVFPEFAAAHSNLASVLQQQGKLQEALMHYKEAIRISPTFADAYSNMGNTLKEMQDVQGALQCYTRAIQINPAFADAHSNLASIHKDSGNIPEAIASYRTALKLKPDFPDAYCNLAHCLQIVCDWTDYDERMKKLVSIVADQLEKNRLPSVHPHHSMLYPLSHGFRKAIAERHGNLCLDKINVLHKPPYEHPKDLKLSDGRLRVGYVSSDFGNHPTSHLMQSIPGMHNPDKFEVFCYALSPDDGTNFRVKVMAEANHFIDLSQIPCNGKAADRIHQDGIHILVNMNGYTKGARNELFALRPAPIQAMWLGYPGTSGALFMDYIITDQETSPAEVAEQYSEKLAYMPHTFFIGDHANMFPHLKKKAVIDFKSNGHIYDNRIVLNGIDLKAFLDSLPDVKIVKMKCPDGGDNADSSNTALNMPVIPMNTIAEAVIEMINRGQIQITINGFSISNGLATTQINNKAATGEEVPRTIIVTTRSQYGLPEDAIVYCNFNQLYKIDPSTLQMWANILKRVPNSVLWLLRFPAVGEPNIQQYAQNMGLPQNRIIFSPVAPKEEHVRRGQLADVCLDTPLCNGHTTGMDVLWAGTPMVTMPGETLASRVAASQLTCLGCLELIAKNRQEYEDIAVKLGTDLEYLKKVRGKVWKQRISSPLFNTKQYTMELERLYLQMWEHYAAGNKPDHMIKPVEVTESA
For the molecule B1, the binding entry in assay [2] and in assay [3] was “binds” throughout.
